# The list shows a part of the results.
# Experiments:
# Assay in all cases: glycan array binding signal (z-score within array); higher = stronger binding
# Settings in all cases: glycan notation: IUPAC condensed, linker removed
# [1] = biological target: GlcNAc(b1-3)Gal(b1-4)GlcNAc(b1-3)Gal(b1-4)GlcNAc(b1-3)GalNAc
# Procedure, shortened: (§1)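 Glycan array binding is given as a within-array Z-score, which can be read as non-binding when negative. The arrays, 3228 of them, came from the Consortium for Functional Glycomics database and were retained only where the protein sequence was available. Z-scores were averaged across arrays of the same protein sequence at different concentrations or buffers and across linkers.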
# [2] = biological target: GlcNAc(b1-3)Gal(b1-4)GlcNAc(b1-3)GalNAc
# Procedure, shortened: as §1
# [3] = biological target: GlcNAc(b1-3)Gal(b1-4)GlcNAc(b1-3)[GlcNAc(b1-3)Gal(b1-4)GlcNAc(b1-3)]GalNAc
# Procedure, shortened: as §1
# [4] = biological target: GlcNAc(b1-3)Gal(b1-4)GlcNAc(b1-6)[Gal(b1-3)]GalNAc
# Procedure, shortened: as §1
# [5] = biological target: GlcNAc(b1-3)Gal(b1-4)GlcNAc(b1-6)[GlcNAc(b1-3)Gal(b1-3)]GalNAc
# Procedure, shortened: as §1
# [6] = biological target: GlcNAc(b1-3)Gal(b1-4)GlcNAc(b1-6)[GlcNAc(b1-3)]Gal(b1-4)GlcNAc
# Procedure, shortened: as §1
# [7] = biological target: GlcNAc(b1-3)GalNAc
# Procedure, shortened: as §1
# [8] = biological target: GlcNAc(b1-3)Man
# Procedure, shortened: as §1
# [9] = biological target: GlcNAc(b1-3)[GlcNAc(b1-4)][GlcNAc(b1-6)]GlcNAc
# Procedure, shortened: as §1
# [10] = biological target: GlcNAc(b1-3)[GlcNAc(b1-6)]Gal(b1-4)GlcNAc
# Procedure, shortened: as §1
# [11] = biological target: GlcNAc(b1-3)[GlcNAc(b1-6)]GalNAc
# Procedure, shortened: as §1
# [12] = biological target: GlcNAc(b1-4)Gal(b1-4)GlcNAc
# Procedure, shortened: as §1
# [13] = biological target: GlcNAc(b1-4)GlcNAc
# Procedure, shortened: as §1
# [14] = biological target: GlcNAc(b1-4)GlcNAc(b1-4)GlcNAc
# Procedure, shortened: as §1
# [15] = biological target: GlcNAc(b1-4)GlcNAc(b1-4)GlcNAc(b1-4)GlcNAc(b1-4)GlcNAc
# Procedure, shortened: as §1
# [16] = biological target: GlcNAc(b1-4)GlcNAc(b1-4)GlcNAc(b1-4)GlcNAc(b1-4)GlcNAc(b1-4)GlcNAc
# Procedure, shortened: as §1
# [17] = biological target: GlcNAc(b1-4)[GlcNAc(b1-6)]GalNAc
# Procedure, shortened: as §1
# [18] = biological target: GlcNAc(b1-6)Gal(b1-4)GlcNAc
# Procedure, shortened: as §1
# [19] = biological target: GlcNAc(b1-6)GalNAc
# Procedure, shortened: as §1
# [20] = biological target: GlcNAc6S(b1-3)Gal(b1-4)GlcNAc
# Procedure, shortened: as §1
# [21] = biological target: Kdn(a2-3)Gal(b1-3)GalNAc
# Procedure, shortened: as §1
# [22] = biological target: Kdn(a2-3)Gal(b1-3)GlcNAc
# Procedure, shortened: as §1
# [23] = biological target: Kdn(a2-3)Gal(b1-4)Glc
# Procedure, shortened: as §1
# [24] = biological target: Kdn(a2-3)Gal(b1-4)GlcNAc
# Procedure, shortened: as §1
# [25] = biological target: Kdn(a2-3)Gal(b1-4)[Fuc(a1-3)]GlcNAc
# Procedure, shortened: as §1
# [26] = biological target: Kdn(a2-6)Gal(b1-4)GlcNAc
# Procedure, shortened: as §1
# [27] = biological target: Man(a1-2)Man(a1-2)Man(a1-3)Man
# Procedure, shortened: as §1
# [28] = biological target: Man(a1-2)Man(a1-2)Man(a1-6)[Man(a1-3)]Man
# Procedure, shortened: as §1
# [29] = biological target: Man(a1-2)Man(a1-3)Man
# Procedure, shortened: as §1
# [30] = biological target: Man(a1-2)Man(a1-3)[Man(a1-2)Man(a1-6)]Man
# Procedure, shortened: as §1
# [31] = biological target: Man(a1-2)Man(a1-3)[Man(a1-2)Man(a1-6)]Man(a1-6)[Man(a1-2)Man(a1-2)Man(a1-3)]Man
# Procedure, shortened: as §1
# [32] = biological target: Man(a1-2)Man(a1-3)[Man(a1-2)Man(a1-6)]Man(a1-6)[Man(a1-2)Man(a1-2)Man(a1-3)]Man(b1-4)GlcNAc(b1-4)GlcNAc
# Procedure, shortened: as §1
# [33] = biological target: Man(a1-2)Man(a1-3)[Man(a1-6)]Man(a1-6)[Man(a1-2)Man(a1-3)]Man(b1-4)GlcNAc(b1-4)GlcNAc
# Procedure, shortened: as §1
# [34] = biological target: Man(a1-2)Man(a1-6)[Man(a1-3)]Man(a1-6)[Man(a1-2)Man(a1-2)Man(a1-3)]Man
# Procedure, shortened: as §1
# [35] = biological target: Man(a1-2)Man(a1-6)[Man(a1-3)]Man(a1-6)[Man(a1-2)Man(a1-2)Man(a1-3)]Man(b1-4)GlcNAc(b1-4)GlcNAc
# Procedure, shortened: as §1
# [36] = biological target: Man(a1-3)[Man(a1-6)]Man
# Procedure, shortened: as §1
# [37] = biological target: Man(a1-3)[Man(a1-6)]Man(a1-6)[Man(a1-2)Man(a1-3)]Man(b1-4)GlcNAc(b1-4)GlcNAc
# Procedure, shortened: as §1
# [38] = biological target: Man(a1-3)[Man(a1-6)]Man(a1-6)[Man(a1-3)]Man
# Procedure, shortened: as §1
# [39] = biological target: Man(a1-3)[Man(a1-6)]Man(a1-6)[Man(a1-3)]Man(b1-4)GlcNAc(b1-4)GlcNAc
# Procedure, shortened: as §1
# [40] = biological target: Man(a1-3)[Man(a1-6)]Man(b1-4)GlcNAc(b1-4)GlcNAc
# Procedure, shortened: as §1
# [41] = biological target: Man(a1-3)[Man(a1-6)]Man(b1-4)GlcNAc(b1-4)[Fuc(a1-6)]GlcNAc
# Procedure, shortened: as §1
# [42] = biological target: Man(a1-6)Man
# Procedure, shortened: as §1
# [43] = biological target: Man(b1-4)GlcNAc
# Procedure, shortened: as §1
# [44] = biological target: MurNAc(b1-4)GlcNAc
# Procedure, shortened: as §1
# [45] = biological target: Neu5Ac(a2-3)Gal
# Procedure, shortened: as §1
binder,measurement,setting,value
EULS2 M1 (Oryza sativa) (protein) MVYCRANPNYAMTARNGAVVLAPANPKDEYQHWIKDMRWSTSIKDEEGYPAFALVNKATGQAIKHSLGQSHPVRLVPYNPEVMDESVLWTESRDVGNGFRCIRMVNNIYLNFDAFHGDKYHGGVRDGTDIVLWKLCEGDNQRWKIQPYYILEQKLISEEDLNSAVDHHHHHH,glycan array binding signal (z-score),[1],-0.152
same,glycan array binding signal (z-score),[2],0.139
same,glycan array binding signal (z-score),[3],0.03
same,glycan array binding signal (z-score),[4],0.017
same,glycan array binding signal (z-score),[5],0.194
same,glycan array binding signal (z-score),[6],-0.02
same,glycan array binding signal (z-score),[7],-0.376
same,glycan array binding signal (z-score),[8],0.199
same,glycan array binding signal (z-score),[9],-0.017
same,glycan array binding signal (z-score),[10],-0.56
same,glycan array binding signal (z-score),[11],0.264
same,glycan array binding signal (z-score),[12],0.075
same,glycan array binding signal (z-score),[13],0.062
same,glycan array binding signal (z-score),[14],0.138
same,glycan array binding signal (z-score),[15],-0.47
same,glycan array binding signal (z-score),[16],-0.056
same,glycan array binding signal (z-score),[17],0.208
same,glycan array binding signal (z-score),[18],-1.13
same,glycan array binding signal (z-score),[19],-0.67
same,glycan array binding signal (z-score),[20],-0.612
same,glycan array binding signal (z-score),[21],-0.02
same,glycan array binding signal (z-score),[22],-0.695
same,glycan array binding signal (z-score),[23],-0.238
same,glycan array binding signal (z-score),[24],-0.824
same,glycan array binding signal (z-score),[25],-0.345
same,glycan array binding signal (z-score),[26],-0.713
same,glycan array binding signal (z-score),[27],-0.701
same,glycan array binding signal (z-score),[28],-0.128
same,glycan array binding signal (z-score),[29],0.378
same,glycan array binding signal (z-score),[30],0.091
same,glycan array binding signal (z-score),[31],-0.01
same,glycan array binding signal (z-score),[32],-0.176
same,glycan array binding signal (z-score),[33],0.455
same,glycan array binding signal (z-score),[34],0.159
same,glycan array binding signal (z-score),[35],0.721
same,glycan array binding signal (z-score),[36],-0.324
same,glycan array binding signal (z-score),[37],0.337
same,glycan array binding signal (z-score),[38],1.59
same,glycan array binding signal (z-score),[39],0.327
same,glycan array binding signal (z-score),[40],3.41
same,glycan array binding signal (z-score),[41],0.377
same,glycan array binding signal (z-score),[42],3.16
same,glycan array binding signal (z-score),[43],-0.283
same,glycan array binding signal (z-score),[44],-0.581
same,glycan array binding signal (z-score),[45],-1.24

# Exported tab-delimited: part of the list above
binder	measurement	setting	value
EULS2 M1 (Oryza sativa) (protein) MVYCRANPNYAMTARNGAVVLAPANPKDEYQHWIKDMRWSTSIKDEEGYPAFALVNKATGQAIKHSLGQSHPVRLVPYNPEVMDESVLWTESRDVGNGFRCIRMVNNIYLNFDAFHGDKYHGGVRDGTDIVLWKLCEGDNQRWKIQPYYILEQKLISEEDLNSAVDHHHHHH	glycan array binding signal (z-score)	[5]	0.194
same	glycan array binding signal (z-score)	[28]	-0.128

# Source: the supplement of paper PMC8728848
